Assay results taken from the supplement of paper PMC12067093, “Discovery and optimisation of a covalent ligand for TRIM25 and its application to targeted protein ubiquitination” (Chemical Science, 2025).
The list shows a part of the results.

Amino acid sequences for entries named in this document (tags omitted). A change or cut given only in a name is not applied to a line headed by its entry.
UniProt Q6DD87: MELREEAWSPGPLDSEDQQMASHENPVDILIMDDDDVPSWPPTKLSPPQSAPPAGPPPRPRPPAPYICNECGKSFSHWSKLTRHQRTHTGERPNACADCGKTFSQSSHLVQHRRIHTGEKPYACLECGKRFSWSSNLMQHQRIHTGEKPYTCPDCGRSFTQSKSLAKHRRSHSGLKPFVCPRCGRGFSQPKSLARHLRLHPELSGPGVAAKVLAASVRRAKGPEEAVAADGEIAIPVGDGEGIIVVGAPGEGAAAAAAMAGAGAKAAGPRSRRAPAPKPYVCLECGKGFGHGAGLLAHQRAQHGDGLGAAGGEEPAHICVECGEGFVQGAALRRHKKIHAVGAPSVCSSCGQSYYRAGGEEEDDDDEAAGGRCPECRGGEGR
UniProt Q15942: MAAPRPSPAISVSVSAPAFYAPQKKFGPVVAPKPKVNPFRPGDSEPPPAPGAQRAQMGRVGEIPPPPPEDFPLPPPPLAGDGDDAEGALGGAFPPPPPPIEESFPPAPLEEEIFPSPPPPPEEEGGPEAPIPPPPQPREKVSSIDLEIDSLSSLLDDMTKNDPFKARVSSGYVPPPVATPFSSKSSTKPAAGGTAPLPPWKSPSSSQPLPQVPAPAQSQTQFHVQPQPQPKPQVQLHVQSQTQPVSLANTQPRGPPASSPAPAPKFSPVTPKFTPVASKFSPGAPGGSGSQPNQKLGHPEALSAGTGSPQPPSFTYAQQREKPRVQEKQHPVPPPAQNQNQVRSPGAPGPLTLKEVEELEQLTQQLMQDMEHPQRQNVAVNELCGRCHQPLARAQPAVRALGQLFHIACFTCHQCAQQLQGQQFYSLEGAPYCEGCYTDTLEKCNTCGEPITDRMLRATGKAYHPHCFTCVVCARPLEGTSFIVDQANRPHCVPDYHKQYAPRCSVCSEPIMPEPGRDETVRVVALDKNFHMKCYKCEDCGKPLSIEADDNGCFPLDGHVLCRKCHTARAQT
UniProt O95218: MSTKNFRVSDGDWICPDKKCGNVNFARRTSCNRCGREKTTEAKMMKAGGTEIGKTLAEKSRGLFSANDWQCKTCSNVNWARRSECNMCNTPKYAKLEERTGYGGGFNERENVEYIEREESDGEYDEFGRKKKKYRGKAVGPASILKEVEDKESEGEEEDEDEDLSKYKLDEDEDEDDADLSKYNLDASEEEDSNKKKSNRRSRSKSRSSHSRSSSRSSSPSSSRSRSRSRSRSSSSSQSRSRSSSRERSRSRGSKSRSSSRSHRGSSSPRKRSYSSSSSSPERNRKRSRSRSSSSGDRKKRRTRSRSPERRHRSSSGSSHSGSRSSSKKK
UniProt O75312: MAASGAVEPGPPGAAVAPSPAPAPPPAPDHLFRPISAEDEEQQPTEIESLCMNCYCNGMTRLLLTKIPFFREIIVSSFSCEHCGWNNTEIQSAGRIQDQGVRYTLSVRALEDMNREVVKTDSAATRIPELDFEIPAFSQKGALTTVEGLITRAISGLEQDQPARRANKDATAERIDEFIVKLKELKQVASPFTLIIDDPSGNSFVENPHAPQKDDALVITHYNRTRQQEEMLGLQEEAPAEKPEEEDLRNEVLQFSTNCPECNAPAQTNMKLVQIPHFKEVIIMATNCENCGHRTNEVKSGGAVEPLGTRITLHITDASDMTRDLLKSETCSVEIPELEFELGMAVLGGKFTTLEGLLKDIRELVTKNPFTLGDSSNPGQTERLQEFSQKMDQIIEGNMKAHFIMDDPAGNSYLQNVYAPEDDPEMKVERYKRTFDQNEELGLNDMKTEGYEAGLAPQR
UniProt O43149: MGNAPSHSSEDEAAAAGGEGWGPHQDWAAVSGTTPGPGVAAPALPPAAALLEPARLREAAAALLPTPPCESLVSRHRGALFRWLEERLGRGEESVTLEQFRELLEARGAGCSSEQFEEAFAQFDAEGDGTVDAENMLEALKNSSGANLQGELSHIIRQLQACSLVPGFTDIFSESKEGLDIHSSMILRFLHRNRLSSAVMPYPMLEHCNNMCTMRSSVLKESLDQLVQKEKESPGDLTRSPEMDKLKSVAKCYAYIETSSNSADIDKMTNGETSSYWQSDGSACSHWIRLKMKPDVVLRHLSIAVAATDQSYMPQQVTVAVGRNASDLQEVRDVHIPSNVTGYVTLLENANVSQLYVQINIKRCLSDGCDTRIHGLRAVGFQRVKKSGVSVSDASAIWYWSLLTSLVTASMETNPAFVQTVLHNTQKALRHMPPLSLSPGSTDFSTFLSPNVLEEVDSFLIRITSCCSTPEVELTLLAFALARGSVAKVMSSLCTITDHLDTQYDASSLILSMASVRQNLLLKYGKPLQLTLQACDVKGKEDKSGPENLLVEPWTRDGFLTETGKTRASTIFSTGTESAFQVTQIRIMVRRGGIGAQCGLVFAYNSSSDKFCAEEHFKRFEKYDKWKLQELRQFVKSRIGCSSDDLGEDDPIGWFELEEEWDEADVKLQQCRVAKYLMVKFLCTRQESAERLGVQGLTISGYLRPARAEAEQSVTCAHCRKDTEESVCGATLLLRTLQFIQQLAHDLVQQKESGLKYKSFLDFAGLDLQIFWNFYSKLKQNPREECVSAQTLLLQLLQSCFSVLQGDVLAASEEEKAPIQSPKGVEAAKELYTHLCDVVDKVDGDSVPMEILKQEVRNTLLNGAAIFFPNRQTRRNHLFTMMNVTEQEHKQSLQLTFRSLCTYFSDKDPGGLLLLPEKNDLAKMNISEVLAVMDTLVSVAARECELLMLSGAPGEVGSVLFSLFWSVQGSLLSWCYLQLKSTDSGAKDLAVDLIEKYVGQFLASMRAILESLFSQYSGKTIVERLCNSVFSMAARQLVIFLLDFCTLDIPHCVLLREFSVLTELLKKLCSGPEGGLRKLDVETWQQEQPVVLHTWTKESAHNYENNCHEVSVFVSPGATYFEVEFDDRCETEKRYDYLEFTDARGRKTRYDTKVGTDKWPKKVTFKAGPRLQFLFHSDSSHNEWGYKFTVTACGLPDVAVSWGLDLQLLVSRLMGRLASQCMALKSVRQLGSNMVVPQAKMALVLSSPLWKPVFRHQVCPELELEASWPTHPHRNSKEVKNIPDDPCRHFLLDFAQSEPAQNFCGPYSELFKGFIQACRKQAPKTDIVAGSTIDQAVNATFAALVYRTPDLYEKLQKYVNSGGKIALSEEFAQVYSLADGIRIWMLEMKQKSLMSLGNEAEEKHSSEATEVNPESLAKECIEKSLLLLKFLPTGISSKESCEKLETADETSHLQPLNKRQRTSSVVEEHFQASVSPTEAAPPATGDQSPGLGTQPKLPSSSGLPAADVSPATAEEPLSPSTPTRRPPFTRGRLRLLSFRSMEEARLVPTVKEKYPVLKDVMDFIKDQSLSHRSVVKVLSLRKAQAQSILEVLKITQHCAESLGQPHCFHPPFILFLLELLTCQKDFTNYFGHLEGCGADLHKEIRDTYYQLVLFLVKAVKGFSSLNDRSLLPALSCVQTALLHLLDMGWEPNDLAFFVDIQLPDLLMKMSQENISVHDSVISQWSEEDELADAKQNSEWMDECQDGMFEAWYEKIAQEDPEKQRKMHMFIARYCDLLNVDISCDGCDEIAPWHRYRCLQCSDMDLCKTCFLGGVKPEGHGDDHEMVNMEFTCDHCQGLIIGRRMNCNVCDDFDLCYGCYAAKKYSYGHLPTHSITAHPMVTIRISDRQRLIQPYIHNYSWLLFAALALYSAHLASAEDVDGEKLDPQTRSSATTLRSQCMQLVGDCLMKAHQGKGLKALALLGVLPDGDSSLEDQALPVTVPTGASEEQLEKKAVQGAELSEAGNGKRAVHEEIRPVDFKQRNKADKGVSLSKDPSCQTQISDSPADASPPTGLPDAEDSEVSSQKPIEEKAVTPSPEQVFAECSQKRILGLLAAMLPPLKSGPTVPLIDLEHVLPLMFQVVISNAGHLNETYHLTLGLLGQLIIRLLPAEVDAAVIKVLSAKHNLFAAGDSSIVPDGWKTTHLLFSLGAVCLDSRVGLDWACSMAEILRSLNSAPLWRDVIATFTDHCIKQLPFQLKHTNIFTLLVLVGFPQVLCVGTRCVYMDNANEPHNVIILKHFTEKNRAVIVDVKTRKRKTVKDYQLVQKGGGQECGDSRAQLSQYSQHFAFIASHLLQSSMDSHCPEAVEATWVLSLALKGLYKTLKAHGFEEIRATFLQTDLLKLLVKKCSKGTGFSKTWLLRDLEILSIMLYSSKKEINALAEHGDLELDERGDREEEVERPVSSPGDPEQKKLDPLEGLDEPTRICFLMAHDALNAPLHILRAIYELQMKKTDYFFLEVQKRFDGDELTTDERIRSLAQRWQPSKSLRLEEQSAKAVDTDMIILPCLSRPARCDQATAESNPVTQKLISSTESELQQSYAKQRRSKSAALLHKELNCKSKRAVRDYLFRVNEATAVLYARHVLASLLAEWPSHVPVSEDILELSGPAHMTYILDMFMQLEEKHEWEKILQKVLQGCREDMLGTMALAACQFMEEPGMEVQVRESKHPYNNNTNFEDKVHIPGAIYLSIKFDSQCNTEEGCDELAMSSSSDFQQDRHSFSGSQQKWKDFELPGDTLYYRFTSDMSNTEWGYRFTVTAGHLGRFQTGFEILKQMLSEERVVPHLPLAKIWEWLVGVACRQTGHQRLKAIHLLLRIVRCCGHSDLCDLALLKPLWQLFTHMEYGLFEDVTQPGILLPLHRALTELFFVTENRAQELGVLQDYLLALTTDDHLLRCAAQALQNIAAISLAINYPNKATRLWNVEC
UniProt A8K0R7: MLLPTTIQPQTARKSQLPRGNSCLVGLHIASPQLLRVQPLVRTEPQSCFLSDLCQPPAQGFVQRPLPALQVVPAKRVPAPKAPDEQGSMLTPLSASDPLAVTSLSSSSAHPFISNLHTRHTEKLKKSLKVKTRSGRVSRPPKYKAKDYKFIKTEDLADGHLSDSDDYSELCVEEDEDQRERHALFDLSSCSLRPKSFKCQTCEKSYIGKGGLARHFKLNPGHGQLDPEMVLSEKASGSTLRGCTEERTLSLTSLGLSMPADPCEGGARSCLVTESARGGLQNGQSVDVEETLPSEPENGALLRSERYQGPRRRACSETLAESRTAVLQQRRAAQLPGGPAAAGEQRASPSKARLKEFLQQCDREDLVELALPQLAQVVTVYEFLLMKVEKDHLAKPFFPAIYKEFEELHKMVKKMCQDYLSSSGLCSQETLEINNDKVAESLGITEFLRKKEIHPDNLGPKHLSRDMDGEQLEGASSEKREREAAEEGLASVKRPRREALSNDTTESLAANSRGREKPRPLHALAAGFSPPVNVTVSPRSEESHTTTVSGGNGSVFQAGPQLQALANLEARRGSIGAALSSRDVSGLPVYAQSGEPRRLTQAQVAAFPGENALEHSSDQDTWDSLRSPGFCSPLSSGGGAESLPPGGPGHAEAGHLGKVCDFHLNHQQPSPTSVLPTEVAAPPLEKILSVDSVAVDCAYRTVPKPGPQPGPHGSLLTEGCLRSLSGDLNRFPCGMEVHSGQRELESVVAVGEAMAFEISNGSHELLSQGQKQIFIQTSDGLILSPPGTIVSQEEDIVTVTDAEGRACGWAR
UniProt Q9H900: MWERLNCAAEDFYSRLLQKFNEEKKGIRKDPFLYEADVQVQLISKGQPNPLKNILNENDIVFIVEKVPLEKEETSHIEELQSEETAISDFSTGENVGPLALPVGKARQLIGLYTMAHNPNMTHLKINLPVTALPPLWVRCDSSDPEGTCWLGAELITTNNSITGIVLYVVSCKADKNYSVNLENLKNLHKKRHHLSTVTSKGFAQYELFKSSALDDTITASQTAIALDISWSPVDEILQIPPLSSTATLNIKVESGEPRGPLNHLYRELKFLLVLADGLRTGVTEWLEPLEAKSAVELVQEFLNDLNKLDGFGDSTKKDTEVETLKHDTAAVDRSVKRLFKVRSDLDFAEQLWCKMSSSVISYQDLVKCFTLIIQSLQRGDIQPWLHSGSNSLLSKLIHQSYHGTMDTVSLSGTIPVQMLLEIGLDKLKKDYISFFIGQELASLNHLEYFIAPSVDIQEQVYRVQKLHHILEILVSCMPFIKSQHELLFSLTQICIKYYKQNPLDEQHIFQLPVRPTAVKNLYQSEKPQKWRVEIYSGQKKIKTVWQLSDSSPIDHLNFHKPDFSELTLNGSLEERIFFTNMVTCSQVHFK
UniProt Q9UHR6: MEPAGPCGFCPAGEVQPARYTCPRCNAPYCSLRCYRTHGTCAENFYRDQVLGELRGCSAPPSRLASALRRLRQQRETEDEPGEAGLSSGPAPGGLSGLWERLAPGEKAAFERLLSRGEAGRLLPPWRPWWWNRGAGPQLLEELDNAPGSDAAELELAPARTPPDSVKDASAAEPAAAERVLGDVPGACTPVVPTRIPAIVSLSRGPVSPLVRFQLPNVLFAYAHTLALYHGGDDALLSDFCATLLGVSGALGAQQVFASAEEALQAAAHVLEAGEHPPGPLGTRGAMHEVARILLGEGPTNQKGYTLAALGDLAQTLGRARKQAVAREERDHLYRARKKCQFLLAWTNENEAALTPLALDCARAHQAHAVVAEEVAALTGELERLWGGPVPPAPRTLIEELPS

Compound: Cc1cc(ccc1-c1ccccc1)C(=O)N1CCCN(CC1)C(=O)CCl [compound 10]
Experiment: probe-labelled cysteine peptide fold change vs DMSO (competition) (log2 fold change); higher = less target engagement (more negative = stronger competition)
Conditions: THP-1, incubation time: 4 h
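Further: competitive profiling in live THP-1 cells: cysteine peptides tagged with an iodoacetamide desthiobiotin (IA-DTB) probe, intensity after compound treatment relative to DMSO-treated cells.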

Row | Target | probe-labelled cysteine peptide fold change (10 µM) | probe-labelled cysteine peptide fold change (50 µM)
1 | ZNF787_Q6DD87_376_AGGEEEDDDDEAAGGRCPECR (UniProt Q6DD87) | 0.0638 | -0.333
2 | ZYX_Q15942_537_CEDCGKPLSIEADDNGCFPLDGHVLCR (UniProt Q15942) | 0.195 | 0.192
3 | ZYX_Q15942_467+473_AYHPHCFTCVVCAR (UniProt Q15942) | 0.0235 | 0.145
4 | ZRANB2_O95218_15_VSDGDWICPDKK (UniProt O95218) | -0.0806 | -0.144
5 | ZPR1_O75312_288_EVIIMATNCENCGHR (UniProt O75312) | 0.0539 | 0.038
6 | ZNRD1_Q9P1U0_115+118_SADEGQTVFYTCTNCK (UniProt Q9P1U0) | -0.172 | -0.15
7 | ZYX_Q15942_537+553_CEDCGKPLSIEADDNGCFPLDGHVLCR (UniProt Q15942) | -0.0759 | -0.421
8 | ZRANB2_O95218_20_CGNVNFAR (UniProt O95218) | -0.0495 | -0.314
9 | ZZZ3_Q8IYH5_24_STVGLNGLDESFCGR (UniProt Q8IYH5) | -0.35 | 0.146
10 | ZZEF1_O43149_1259_HQVCPELELEASWPTHPHR (UniProt O43149) | -0.201 | -0.0771
11 | ZZEF1_O43149_2932_CAAQALQNIAAISLAINYPNK (UniProt O43149) | 0.0979 | 0.478
12 | ZNF839_A8K0R7_48+54_TEPQSCFLSDLCQPPAQGFVQR (UniProt A8K0R7) | -0.175 | 0.672
13 | ZWILCH_Q9H900_585_IFFTNMVTCSQVHFK (UniProt Q9H900) | -0.0899 | 0.0202
14 | ZNHIT2_Q9UHR6_188_VLGDVPGACTPVVPTR (UniProt Q9UHR6) | -0.284 | -0.106

Two successive entries already listed:
Row | Target | probe-labelled cysteine peptide fold change (10 µM) | probe-labelled cysteine peptide fold change (50 µM)
11 | ZZEF1_O43149_2932_CAAQALQNIAAISLAINYPNK (UniProt O43149) | 0.0979 | 0.478
12 | ZNF839_A8K0R7_48+54_TEPQSCFLSDLCQPPAQGFVQR (UniProt A8K0R7) | -0.175 | 0.672
